Reference: publication PMC6113293, “Phosphorylation of ULK1 affects autophagosome fusion and links chaperone-mediated autophagy to macroautophagy” (Nature Communications, 2018)

Target: T1, GFP-STX17, P56962
T1 chain: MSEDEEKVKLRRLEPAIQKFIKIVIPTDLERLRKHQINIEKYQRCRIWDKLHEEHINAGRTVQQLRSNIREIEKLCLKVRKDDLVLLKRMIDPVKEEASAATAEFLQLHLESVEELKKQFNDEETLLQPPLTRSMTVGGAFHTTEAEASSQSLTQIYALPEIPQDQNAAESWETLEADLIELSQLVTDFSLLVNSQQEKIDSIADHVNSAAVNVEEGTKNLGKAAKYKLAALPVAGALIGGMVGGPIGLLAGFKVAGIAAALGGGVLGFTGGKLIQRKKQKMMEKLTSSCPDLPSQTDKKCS
Experiment: affinity purification with mass spectrometry; mass spectrometry of GFP-STX17 IPed proteins
Details: remark: other sources report otherwise

binding: binds
B1: ULK1 (endogenous), O75385 1-1050 (enzyme)
chain: MEPGRGGTETVGKFEFSRKDLIGHGAFAVVFKGRHREKHDLEVAVKCINKKNLAKSQTLLGKEIKILKELKHENIVALYDFQEMANSVYLVMEYCNGGDLADYLHAMRTLSEDTIRLFLQQIAGAMRLLHSKGIIHRDLKPQNILLSNPAGRRANPNSIRVKIADFGFARYLQSNMMAATLCGSPMYMAPEVIMSQHYDGKADLWSIGTIVYQCLTGKAPFQASSPQDLRLFYEKNKTLVPTIPRETSAPLRQLLLALLQRNHKDRMDFDEFFHHPFLDASPSVRKSPPVPVPSYPSSGSGSSSSSSSTSHLASPPSLGEMQQLQKTLASPADTAGFLHSSRDSGGSKDSSCDTDDFVMVPAQFPGDLVAEAPSAKPPPDSLMCSGSSLVASAGLESHGRTPSPSPPCSSSPSPSGRAGPFSSSRCGASVPIPVPTQVQNYQRIERNLQSPTQFQTPRSSAIRRSGSTSPLGFARASPSPPAHAEHGGVLARKMSLGGGRPYTPSPQVGTIPERPGWSGTPSPQGAEMRGGRSPRPGSSAPEHSPRTSGLGCRLHSAPNLSDLHVVRPKLPKPPTDPLGAVFSPPQASPPQPSHGLQSCRNLRGSPKLPDFLQRNPLPPILGSPTKAVPSFDFPKTPSSQNLLALLARQGVVMTPPRNRTLPDLSEVGPFHGQPLGPGLRPGEDPKGPFGRSFSTSRLTDLLLKAAFGTQAPDPGSTESLQEKPMEIAPSAGFGGSLHPGARAGGTSSPSPVVFTVGSPPSGSTPPQGPRTRMFSAGPTGSASSSARHLVPGPCSEAPAPELPAPGHGCSFADPITANLEGAVTFEAPDLPEETLMEQEHTEILRGLRFTLLFVQHVLEIAALKGSASEAAGGPEYQLQESVVADQISLLSREWGFAEQLVLYLKVAELLSSGLQSAIDQIRAGKLCLSSTVKQVVRRLNELYKASVVSCQGLSLRLQRFFLDKQRLLDRIHSITAERLIFSHAVQMVQSAALDEMFQHREGCVPRYHKALLLLEGLQHMLSDQADIENVTKCKLCIERRLSALLTGICA

Results are given in words; binding and its absence hold for the method and conditions named. In cells and extracts the contact can be indirect. A yes stands for co-enrichment or nearness to the bait. Other partners may have been found. Tags and fused reporters may be left off the sequences shown.
